According to patent US8841077B2, “Biomarkers for amyotrophic lateral sclerosis and methods using the same” (Massachusetts General Hospital, priority 2006, dated 2014):

Assay: Metabolomic profiling of blood plasma, 62 ALS subjects vs 62 control subjects (Example 3; Tables 7, 8)
Assay type: in vivo, human
[1] = blood plasma, ALS mean level compared to control mean level, positive = increase in ALS
[2] = blood plasma, ALS mean level vs control mean level, 62 ALS vs 62 control subjects, analytical platform GC-MS
[3] = blood plasma, ALS mean level vs control mean level, 62 ALS vs 62 control subjects, analytical platform LC-MS

## O=C1CC[C@@H](C(=O)O)N1 [Metabolite 5-oxoproline, 5-oxoproline]
[1]
  % change in ALS: −2%
[2]
  % change in ALS: −2%

## COc1ccc(/C=C/C(=O)O)c(OC)c1OC
[1]
  % change in ALS: −5%

## NCC(O)c1ccc(O)cc1 (stereo not shown) [Octopamine]
[1]
  % change in ALS: −2%
[2]
  % change in ALS: −2%

## NCCC(=O)N[C@@H](Cc1cnc[nH]1)C(=O)O [Carnosine]
[1]
  % change in ALS: −35%
[3]
  % change in ALS: −35%

## O=C(O)[C@H](O)[C@@H](O)[C@H](O)[C@H](O)COP(=O)(O)O [6-phosphogluconic acid]
[1]
  % change in ALS: −22%
[3]
  % change in ALS: −22%

## Cc1cc2nc[nH]c2cc1C [Metabolite 5-6-Dimethylbenzimidazole-]
[1]
  % change in ALS: 2%

## CC(=O)N[C@@H](C)C(=O)O [N-acetyl-L-alanine]
[1]
  % change in ALS: 3%
[2]
  % change in ALS: 3%

## N[C@@H](C[Se][Se]C[C@H](N)C(=O)O)C(=O)O [Selenocystine]
[1]
  % change in ALS: 19%
[3]
  % change in ALS: 19%

## C[C@H](CCC(=O)O)[C@H]1CC[C@H]2[C@@H]3[C@H](O)C[C@@H]4C[C@H](O)CC[C@]4(C)[C@H]3C[C@H](O)[C@]12C
[1]
  % change in ALS: 11%
[2]
  % change in ALS: 11%

## NCCCC[C@H](N)C(=O)O [Metabolite - 4043 retired: lysine]
[1]
  % change in ALS: 15%
[2]
  % change in ALS: 15%

## CC(=O)OP(=O)(O)O [Acetylphosphate]
[1]
  % change in ALS: −10%
[3]
  % change in ALS: −10%

## N=C(N)NCCC[C@H](N)C(=O)O [Metabolite - 3027 retired: arginine]
[1]
  % change in ALS: −8%
[2]
  % change in ALS: −8%

## O=CC[C@@H](O)[C@H](O)[C@H](O)CO [Metabolite 2-deoxy-D-glucose, 2-deoxy-D-glucose]
[1]
  % change in ALS: 22%
[2]
  % change in ALS: 22%

## CC(C)CC(=O)C(=O)O [Metabolite 4-methyl-2-oxopentanoate, 4-methyl-2-oxopentanoate]
[1]
  % change in ALS: −12%
[2]
  % change in ALS: −12%

## NCCCC[C@H](N)C(=O)O [Metabolite - 4032 retired: lysine]
[1]
  % change in ALS: −16%
[2]
  % change in ALS: −16%

## O=C(O)Cc1c[nH]c2ccc(O)cc12 [Metabolite 5-hydroxyindoleacetate, 5-hydroxyindoleacetate]
[1]
  % change in ALS: 11%
[2]
  % change in ALS: 11%

## NCCc1c[nH]c2ccccc12 [Tryptamine]
[1]
  % change in ALS: 5%
[2]
  % change in ALS: 5%

## NCCc1c[nH]c2ccc(O)cc12 [Serotonin]
[1]
  % change in ALS: 11%
[3]
  % change in ALS: 11%

## NCCc1ccc(O)c(O)c1 [Dopamine]
[1]
  % change in ALS: −3%
[2]
  % change in ALS: −3%

## Cc1ncc(CO)c(CN)c1O [Pyridoxamine]
[1]
  % change in ALS: −3%
[3]
  % change in ALS: −3%

## N[C@@H](Cc1ccc(O)c([N+](=O)[O-])c1)C(=O)O [Metabolite 3-nitro-L-tyrosine, 3-nitro-L-tyrosine]
[1]
  % change in ALS: −5%
[2]
  % change in ALS: −5%

## C[C@](N)(Cc1ccc(O)c(O)c1)C(=O)O
[1]
  % change in ALS: 24%
[2]
  % change in ALS: 24%

## O=P(O)(O)OC[C@H]1O[C@H](O)[C@H](O)[C@@H]1O [alpha-D-ribose-5-phosphate]
[1]
  % change in ALS: 22%
[3]
  % change in ALS: 22%

## CNC[C@H](O)c1ccc(O)c(O)c1 [Epinephrine]
human, in vivo
  % change in ALS: 3%

## Cn1cncc1C[C@H](N)C(=O)O [Metabolite 3-methyl-L-histidine, 3-methyl-L-histidine]
[1]
  % change in ALS: 12%
[3]
  % change in ALS: 12%

## O=C(O)Cc1ccc(O)cc1 [Metabolite 4-hydroxyphenylacetate, 4-hydroxyphenylacetate]
[1]
  % change in ALS: −21%
[3]
  % change in ALS: −21%

## O=c1[nH]cnc2nc[nH]c12 [Metabolite - 1458 retired: hypoxanthine]
[1]
  % change in ALS: 3%
[3]
  % change in ALS: 3%

## CC(O)C(=O)O (stereo not shown) [Metabolite - 3316 retired: lactate]
[1]
  % change in ALS: −2%

## O=C(O)[C@@H]1C[C@@H](O)CN1 (relative stereo) [trans-4-hydroxyproline]
[1]
  % change in ALS: 10%
[2]
  % change in ALS: 10%

## OC[C@@H](O)C(O)[C@H](O)CO [D-arabitol]
[1]
  % change in ALS: −14%
[2]
  % change in ALS: −14%

## Cc1ncc(COP(=O)(O)O)c(CN)c1O [pyridoxamine-phosphate]
[1]
  % change in ALS: 12%
[3]
  % change in ALS: 12%

## N[C@@H](Cc1ccc(O)c(O)c1)C(=O)O [DOPA]
[1]
  % change in ALS: 1%

## NCC(O)CC[C@H](N)C(=O)O (stereo partly shown) [Metabolite 5-hydroxylysine, 5-hydroxylysine]
[1]
  % change in ALS: −24%
[3]
  % change in ALS: −24%

## CC(CN)C(=O)O (stereo not shown) [Metabolite 3-amino-isobutyrate, 3-amino-isobutyrate]
[1]
  % change in ALS: −7%
[2]
  % change in ALS: −7%

## NC(=O)C[C@H](N)C(=O)O [Asparagines]
[1]
  % change in ALS: −9%
[2]
  % change in ALS: −9%

## OC[C@@]1(O)OC[C@H](O)[C@@H](O)[C@@H]1O [alpha-L-sorbopyranose]
[1]
  % change in ALS: 2%

## CC(=O)N[C@H]1[C@H]([C@@H](O)[C@@H](O)CO)O[C@@](O)(C(=O)O)C[C@@H]1O [N-acetylneuraminate]
[1]
  % change in ALS: −8%
[2]
  % change in ALS: −8%

## Cn1cnc2ncnc-2c1N [Metabolite 1-methyladenine, 1-methyladenine]
[1]
  % change in ALS: −16%
[2]
  % change in ALS: −16%

## OC[C@H]1OC[C@H](O)[C@@H](O)[C@@H]1O
[1]
  % change in ALS: 10%
[2]
  % change in ALS: 10%

## CC(C)C[C@H](NC(=O)CC[C@H](N)C(=O)O)C(=O)O [Metabolite - 2387 retired: gamma glu leu]
[1]
  % change in ALS: 63%
[3]
  % change in ALS: 63%

## OC[C@@H](O)[C@H](O)[C@@H](O)CO [Xylitol]
[1]
  % change in ALS: 7%
[3]
  % change in ALS: 7%

## N[C@@H](Cc1c[nH]c2ccc(O)cc12)C(=O)O [Oxitryptan]
[1]
  % change in ALS: −7%
[3]
  % change in ALS: −7%

## COc1ccc2[nH]cc(CCNC(C)=O)c2c1 [Melatonin]
[1]
  % change in ALS: −4%
[2]
  % change in ALS: −4%

## O=C[C@H](O)[C@@H](O)[C@H](O)[C@H](O)COP(=O)(O)O [glucose-6-phosphate]
[1]
  % change in ALS: 0%

## C[C@H](CCCC(C)(C)O)[C@H]1CC[C@H]2[C@@H]3CC=C4C[C@@H](O)CC[C@]4(C)[C@H]3CC[C@]12C [Metabolite 25-hydroxycholesterol, 25-hydroxycholesterol]
[1]
  % change in ALS: 3%
[2]
  % change in ALS: 3%

## O=c1[nH]cnc2nc[nH]c12 [Metabolite 1-7-dihydro-6h-purin-6-one]
[1]
  % change in ALS: −15%
[3]
  % change in ALS: −15%

## N[C@H](CCC[C@H](N)C(=O)O)C(=O)O [diaminopimelic acid]
[1]
  % change in ALS: 7%
[3]
  % change in ALS: 7%

## O=C(O)[C@@H](O)Cc1cnc[nH]1 [L-beta-imidazolelactic acid]
[1]
  % change in ALS: 4%
[2]
  % change in ALS: 4%

## CC(=O)Nc1ccc(O[C@@H]2O[C@H](C(=O)O)[C@@H](O)[C@H](O)[C@H]2O)cc1 [p-acetamidophenyl-beta-D-gluguronide]
[1]
  % change in ALS: 137%
[3]
  % change in ALS: 137%

## O=C1O[C@H]([C@H](O)CO)[C@H](O)[C@H]1O [glucono-gamma-lactone]
[1]
  % change in ALS: 7%
[2]
  % change in ALS: 7%

## CC(=O)Nc1ccc(OS(=O)(=O)O)cc1
[1]
  % change in ALS: 571%
[3]
  % change in ALS: 571%

## C[n+]1cccc(C(N)=O)c1
[1]
  % change in ALS: 2%

## O=P(O)(O)OC(CO)CO
[1]
  % change in ALS: −1%

## lactate
[3]
  % change in ALS: −4%

## N[C@@H](Cc1ccc(O)c(Cl)c1)C(=O)O [Metabolite 3-chloro-L-tyrosine, 3-chloro-L-tyrosine]
[1]
  % change in ALS: 1%

## CCCCC/C=C\C/C=C\CCCCCCCC(=O)O [9-12-octadecadienoic acid-z-z-]
[1]
  % change in ALS: 3%

## O=C(O)C(O)CO (stereo not shown) [Glycerate]
[1]
  % change in ALS: 3%
[3]
  % change in ALS: 3%

## OC[C@@H](O)[C@@H](O)CO
[1]
  % change in ALS: −2%
[2]
  % change in ALS: −2%

## COc1cc(C(O)CN)ccc1O (stereo not shown) [Normetanephrine]
[1]
  % change in ALS: 23%
[2]
  % change in ALS: 23%

## O=C(O)C(O)Cc1ccc(O)cc1 (stereo not drawn) [alpha-4-dihydroxybenzenepropanoic acid]
[1]
  % change in ALS: −29%
[2]
  % change in ALS: −29%

## CCCCCCCCCCCC(=O)O [n-dodecanoate]
[1]
  % change in ALS: −13%
[2]
  % change in ALS: −13%

## CCC(C)C(=O)C(=O)O (stereo not shown) [3-methyl-2-oxovaleric acid]
[1]
  % change in ALS: −9%
[2]
  % change in ALS: −9%

## O=C(O)C(O)Cc1c[nH]c2ccccc12 (racemic)
[1]
  % change in ALS: 3%
[3]
  % change in ALS: 3%

## O=C1CC(C(=O)O)NC(=O)N1 (stereo not shown) [5-6-dihydroorotic acid]
[1]
  % change in ALS: −7%
[2]
  % change in ALS: −7%

## C[C@@H]1NC(=O)N[C@@H]1CCCCCC(=O)O [Dethiobiotin]
[1]
  % change in ALS: 0%

## Nc1ccccc1C(=O)O [anthranilic acid]
[1]
  % change in ALS: −15%
[2]
  % change in ALS: −15%

## Lactate
[1]
  % change in ALS: 3% and −4%
[2]
  % change in ALS: 3%

## CCCCC/C=C\C/C=C\CCCCCCCC(=O)O [9-12-octadecadienoic acid-z-z]
[2]
  % change in ALS: 3%

## O=C1O[C@@H]([C@H](O)CO)[C@@H](O)[C@H]1O [gulono-1-4-lactone]
[1]
  % change in ALS: −3%
[2]
  % change in ALS: −3%

## O=C(O)C(=O)O [Metabolite - 1829 retired: oxalic acid]
[1]
  % change in ALS: 8%
[3]
  % change in ALS: 8%

## CCOC(=O)Cc1c[nH]c2ccccc12 [ethyl-3-indoleacetate]
[1]
  % change in ALS: 16%
[2]
  % change in ALS: 16%

## C[C@@H](N)C(=O)N[C@H](C)C(=O)O [D-alanyl-D-alanine] (H-[dA]-[dA]-OH)
[1]
  % change in ALS: 7%
[3]
  % change in ALS: 7%

## O=C(O)[C@@H](O)[C@H](O)CO [Metabolite - 3020 retired: threonic acid]
human, in vivo
  % change in ALS: 2%

## Phosphate
[1]
  % change in ALS: 4%
[2]
  % change in ALS: 4%

Where “and” joins values, the source holds several entries; their conditions need not be identical. Equal entries are not always repeated. Square brackets hold non-standard residues; d marks the D form. Peptide text beside a SMILES is read from it.
